The assay concerns L1210 leukemia ip in BDF1 mice, survival T/C. Briefly: NCI In Vivo Anticancer Drug Screen. Data for tumor model L1210 Leukemia (intraperitoneal) in B6D2F1 (BDF1) mice. The settings on record: T/C endpoint: mean survival time, higher T/C = longer survival.
Setting [1] is: dose: 300.0 mg/kg/injection, schedule: Q01DX001 (ip), vehicle: saline.
[2] abbreviates: dose: 400.0 mg/kg/injection, schedule: Q04DX003 (ip), vehicle: saline with Tween-80.

The list is a part of this screen's results and no random one: it gathers tests that were run many times, whatever their T/C, doses with no T/C, and many T/C values between a quarter and a half above the control. Further doses and runs are listed elsewhere. T/C is the treated group as % of the vehicle group. Some entries give survivors of the animals treated and no T/C: the source files T/C as zero there, which appears to mark a toxic dose or a test without result, not a measured value. Some survivor counts are full or nearly so, which does not show that the dose was tolerated: the source hardly ever lists a survival T/C far under the control, and the zero likely stands for such cases as well. Counts of survivors are from the toxicity check (mostly the fifth day) where no day follows; animals may have died later. Schedules are NCI's codes, read here as Q, the interval in days (D) or hours (H), X, the number of doses. Where survival is the endpoint, the PubChem record calls one and a half times the control and up active, and a quarter to a half above the control has no call in these data; cut-offs in other NCI protocols can differ. Brackets with × stand for listed records that agree. Some entries hold several experiments; their values stand side by side, smallest first. Some T/C values are followed by the survivors on the day toxicity was checked, most often the fifth; without a count, all were alive then.

On to `O/N=c1/ccn(O)c2ccccc12`, for which the T/C was 135 % of control (dose: 0.25 mg/kg/injection, schedule: Q03HX024 (ip), vehicle: other); 139 % of control (dose: 0.5 mg/kg/injection, schedule: Q03HX016 (ip), vehicle: other); 142 % of control (dose: 0.5 mg/kg/injection, schedule: Q03HX024 (ip), vehicle: other); 127 and 133 % of control (dose: 0.78 mg/kg/injection, schedule: Q01DX009 (ip), vehicle: saline); 136 % of control [7 of 8 alive] (dose: 1.0 mg/kg/injection, schedule: Q01DX005 (ip), vehicle: other); 132 % of control (dose: 1.0 mg/kg/injection, schedule: Q01DX009 (ip), vehicle: other). The T/C is, setting by setting: (dose: 1.0 mg/kg/injection, schedule: Q03HX008 (ip), vehicle: other) 139 % of control; (dose: 1.0 mg/kg/injection, schedule: Q03HX016 (ip), vehicle: other) 149 % of control; (dose: 1.0 mg/kg/injection, schedule: Q03HX024 (ip), vehicle: other) 139 % of control; (dose: 1.17 mg/kg/injection, schedule: Q01DX009 (ip), vehicle: saline) 129 % of control; (dose: 1.56 mg/kg/injection, schedule: Q01DX009 (ip), vehicle: saline) 130 % of control; (dose: 2.0 mg/kg/injection, schedule: Q01DX005 (ip), vehicle: other) 143 % of control. The T/C (dose: 2.0 mg/kg/injection, schedule: Q01DX009 (ip), vehicle: other) was 149 % of control; the T/C (dose: 2.0 mg/kg/injection, schedule: Q03HX016 (ip), vehicle: other) was 142 % of control; the T/C (dose: 2.0 mg/kg/injection, schedule: Q03HX024 (ip), vehicle: other) was 139 % of control; the T/C (dose: 2.0 mg/kg/injection, schedule: Q04DX003 (ip), vehicle: other) was 137 % of control; the T/C (dose: 2.6 mg/kg/injection, schedule: Q01DX015 (ip), vehicle: saline) is 134 % of control; the T/C (dose: 3.12 mg/kg/injection, schedule: Q01DX009 (ip), vehicle: saline) is 132 % of control. Also, the T/C was 144 % of control (dose: 4.0 mg/kg/injection, schedule: Q01DX001 (ip), vehicle: other); 127 % of control (dose: 4.0 mg/kg/injection, schedule: Q01DX005 (ip), vehicle: other); 133 % of control (2×) (dose: 4.0 mg/kg/injection, schedule: Q01DX015 (ip), vehicle: saline); 147 % of control (dose: 4.0 mg/kg/injection, schedule: Q04DX003 (ip), vehicle: other); 142 % of control (dose: 4.0 mg/kg/injection, schedule: Q08DX002 (ip), vehicle: other); 132 % of control (dose: 5.0 mg/kg/injection, schedule: Q01DX001 (ip), vehicle: other). In addition, the T/C by setting is: (dose: 10.0 mg/kg/injection, schedule: Q01DX001 (ip), vehicle: other) 135 and 137 % of control; (dose: 15.0 mg/kg/injection, schedule: Q01DX001 (ip), vehicle: other) 127 % of control; (dose: 20.0 mg/kg/injection, schedule: Q01DX001 (ip), vehicle: other) 134 % of control; (dose: 64.0 mg/kg/injection, schedule: Q01DX001 (sc), vehicle: other) 125 % of control. Also, the survivor count is reported as 4 of 8 (dose: 4.0 mg/kg/injection, schedule: Q03HX008 (ip), vehicle: other); 5 of 6 (dose: 4.0 mg/kg/injection, schedule: Q03HX024 (ip), vehicle: other); 3 of 6 (dose: 6.25 mg/kg/injection, schedule: Q01DX009 (ip), vehicle: saline); 8 of 8 (dose: 8.0 mg/kg/injection, schedule: Q01DX009 (ip), vehicle: other); 5 of 6 (dose: 8.0 mg/kg/injection, schedule: Q01DX015 (ip), vehicle: saline); 4 of 8 (dose: 8.0 mg/kg/injection, schedule: Q03HX008 (ip), vehicle: other). The survivor count is on record as 1 of 6 (dose: 12.5 mg/kg/injection, schedule: Q01DX009 (ip), vehicle: saline); 2 of 8 (dose: 16.0 mg/kg/injection, schedule: Q01DX001 (ip), vehicle: other); 5 of 8 (dose: 16.0 mg/kg/injection, schedule: Q01DX005 (ip), vehicle: other); 5 of 6 (dose: 16.0 mg/kg/injection, schedule: Q01DX015 (ip), vehicle: saline); 2 of 8 (dose: 16.0 mg/kg/injection, schedule: Q04DX003 (ip), vehicle: other); 8 of 8 (dose: 16.0 mg/kg/injection, schedule: Q08DX002 (ip), vehicle: other). Besides, the survivor count by setting is: (dose: 25.0 mg/kg/injection, schedule: Q01DX009 (ip), vehicle: saline) 3 of 6; (dose: 32.0 mg/kg/injection, schedule: Q01DX001 (ip), vehicle: other) 2 of 8; (dose: 32.0 mg/kg/injection, schedule: Q04DX003 (ip), vehicle: other) 6 of 8; (dose: 32.0 mg/kg/injection, schedule: Q08DX002 (ip), vehicle: other) 7 of 8; (dose: 50.0 mg/kg/injection, schedule: Q04DX003 (ip), vehicle: saline) 1 of 6; (dose: 64.0 mg/kg/injection, schedule: Q01DX001 (ip), vehicle: other) 2 of 8. Besides, the survivor count by setting is: (dose: 100.0 mg/kg/injection, schedule: Q01DX001 (ip), vehicle: other) 3 of 6; (dose: 100.0 mg/kg/injection, schedule: Q04DX003 (ip), vehicle: saline) 1 of 6; (dose: 200.0 mg/kg/injection, schedule: Q01DX001 (ip), vehicle: other) 0 of 6; (dose: 400.0 mg/kg/injection, schedule: Q01DX001 (ip), vehicle: other) 0 of 6.

As for `CC(=O)Oc1ccc(Cl)cc1/C=C\C=O`, the survivor count (dose: 400.0 mg/kg/injection, schedule: Q01DX001 (ip), vehicle: saline) was 3 of 6.

Regarding `Clc1ccc2c(NCCNC3CCCCC3)ccnc2c1`, the survivor count is on record as 2 of 6 (dose: 75.0 mg/kg/injection, schedule: Q01DX001 (ip), vehicle: saline); 1 of 6 (dose: 150.0 mg/kg/injection, schedule: Q01DX001 (ip), vehicle: saline); 0 of 6 under setting [1].

On to `CC(=O)OCN1C(=O)C2C3CCC(O3)C2C1=O` (centres undefined), for which the survivor count reads like this: (dose: 200.0 mg/kg/injection, schedule: Q04DX003 (ip), vehicle: saline with Tween-80) 5 of 6; (dose: 400.0 mg/kg/injection, schedule: Q01DX001 (ip), vehicle: saline with Tween-80) 0 of 6; under setting [2], 0 of 6.

As for `NC(=O)N/C=C1\CCCOC1=O`, the survivor count under setting [2] was 2 of 6.

On to `N#Cc1nc(C#N)c(C#N)nc1C#N`, for which the survivor count by setting is: (dose: 100.0 mg/kg/injection, schedule: Q01DX009 (ip), vehicle: Klucel (hydroxypropylcellulose) (HPC)) 0 of 6; (dose: 200.0 mg/kg/injection, schedule: Q01DX009 (ip), vehicle: Klucel (hydroxypropylcellulose) (HPC)) 0 of 6; (dose: 400.0 mg/kg/injection, schedule: Q01DX009 (ip), vehicle: Klucel (hydroxypropylcellulose) (HPC)) 0 of 6.

In the case of `N#Cc1c(C#N)c(N)n(N)c1N`, the survivor count is, setting by setting: (dose: 100.0 mg/kg/injection, schedule: Q04DX002 (ip), vehicle: Klucel (hydroxypropylcellulose) (HPC)) 1 of 3; (dose: 400.0 mg/kg/injection, schedule: Q04DX002 (ip), vehicle: Klucel (hydroxypropylcellulose) (HPC)) 2 of 3.

With `NC1(C(=O)O)CCC(N)(C(=O)O)CC1` (centres undefined), under setting [1], the survivor count is 1 of 6.

The values are drawn from PubChem BioAssay AID248 (DTP/NCI, 2004).
